Measured values reported in the supplement of paper PMC6411743.
± gives the standard deviation of the averaged measurements. Only a part is listed here, and it is no random draw. Most entries show no effect beyond the scatter of the controls.

Sequences of proteins named here, by UniProt entry; tags and fusion partners are left off. A change or cut given only in a name is not applied to a line headed by its entry.
UniProt Q7L4P6: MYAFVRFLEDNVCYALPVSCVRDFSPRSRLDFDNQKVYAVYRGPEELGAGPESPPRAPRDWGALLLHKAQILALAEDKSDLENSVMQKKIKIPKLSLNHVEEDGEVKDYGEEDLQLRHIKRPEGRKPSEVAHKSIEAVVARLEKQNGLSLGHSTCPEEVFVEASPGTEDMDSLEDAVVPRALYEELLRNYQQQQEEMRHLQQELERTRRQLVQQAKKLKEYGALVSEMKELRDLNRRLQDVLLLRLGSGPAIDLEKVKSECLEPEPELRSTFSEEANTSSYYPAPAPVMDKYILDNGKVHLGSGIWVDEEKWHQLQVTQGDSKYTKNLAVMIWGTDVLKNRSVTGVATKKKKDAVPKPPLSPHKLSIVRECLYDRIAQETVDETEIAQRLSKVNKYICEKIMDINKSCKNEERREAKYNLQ
UniProt Q6ZNE5, whole entry: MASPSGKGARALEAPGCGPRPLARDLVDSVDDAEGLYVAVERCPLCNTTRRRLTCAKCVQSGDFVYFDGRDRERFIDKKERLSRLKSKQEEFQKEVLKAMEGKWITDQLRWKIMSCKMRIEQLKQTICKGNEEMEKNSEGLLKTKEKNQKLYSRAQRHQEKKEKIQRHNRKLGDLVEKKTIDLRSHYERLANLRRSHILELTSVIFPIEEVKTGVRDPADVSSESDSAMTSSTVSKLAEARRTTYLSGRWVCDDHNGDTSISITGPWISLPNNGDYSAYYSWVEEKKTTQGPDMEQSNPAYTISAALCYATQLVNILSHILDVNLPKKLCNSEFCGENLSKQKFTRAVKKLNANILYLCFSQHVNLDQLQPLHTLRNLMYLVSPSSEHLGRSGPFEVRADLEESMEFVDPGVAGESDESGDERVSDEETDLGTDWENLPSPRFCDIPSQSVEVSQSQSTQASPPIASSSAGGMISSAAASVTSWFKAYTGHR
UniProt Q7Z5K2: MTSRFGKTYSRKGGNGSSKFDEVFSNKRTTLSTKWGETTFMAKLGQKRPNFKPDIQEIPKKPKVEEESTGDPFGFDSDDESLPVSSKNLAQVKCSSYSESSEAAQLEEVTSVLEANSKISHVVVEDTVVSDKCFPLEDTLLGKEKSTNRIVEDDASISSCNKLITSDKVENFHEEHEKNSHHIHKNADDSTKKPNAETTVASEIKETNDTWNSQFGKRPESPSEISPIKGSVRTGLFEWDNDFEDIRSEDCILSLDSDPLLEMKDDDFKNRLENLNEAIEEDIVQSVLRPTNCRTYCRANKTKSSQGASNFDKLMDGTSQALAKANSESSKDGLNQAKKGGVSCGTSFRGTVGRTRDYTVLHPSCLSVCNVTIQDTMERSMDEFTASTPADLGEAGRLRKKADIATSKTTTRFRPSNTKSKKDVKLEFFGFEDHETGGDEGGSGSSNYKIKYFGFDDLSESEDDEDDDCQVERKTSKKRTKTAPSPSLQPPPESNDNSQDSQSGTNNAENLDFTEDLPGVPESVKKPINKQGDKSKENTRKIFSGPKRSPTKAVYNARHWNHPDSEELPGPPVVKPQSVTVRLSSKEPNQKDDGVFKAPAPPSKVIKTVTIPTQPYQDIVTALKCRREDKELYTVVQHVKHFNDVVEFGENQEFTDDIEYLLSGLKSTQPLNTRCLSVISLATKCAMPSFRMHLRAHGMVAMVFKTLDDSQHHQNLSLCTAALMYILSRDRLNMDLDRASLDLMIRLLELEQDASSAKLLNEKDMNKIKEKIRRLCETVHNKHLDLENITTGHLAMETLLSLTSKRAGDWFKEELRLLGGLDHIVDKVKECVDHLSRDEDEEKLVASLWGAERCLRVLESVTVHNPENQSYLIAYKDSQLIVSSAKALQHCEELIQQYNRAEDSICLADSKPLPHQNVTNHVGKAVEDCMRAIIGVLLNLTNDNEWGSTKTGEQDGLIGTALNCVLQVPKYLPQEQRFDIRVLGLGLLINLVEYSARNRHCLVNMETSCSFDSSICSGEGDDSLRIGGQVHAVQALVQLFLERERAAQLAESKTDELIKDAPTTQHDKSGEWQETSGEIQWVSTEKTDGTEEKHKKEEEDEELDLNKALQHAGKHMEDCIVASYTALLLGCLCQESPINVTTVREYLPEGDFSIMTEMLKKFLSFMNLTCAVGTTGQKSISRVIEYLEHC
UniProt Q86Y01: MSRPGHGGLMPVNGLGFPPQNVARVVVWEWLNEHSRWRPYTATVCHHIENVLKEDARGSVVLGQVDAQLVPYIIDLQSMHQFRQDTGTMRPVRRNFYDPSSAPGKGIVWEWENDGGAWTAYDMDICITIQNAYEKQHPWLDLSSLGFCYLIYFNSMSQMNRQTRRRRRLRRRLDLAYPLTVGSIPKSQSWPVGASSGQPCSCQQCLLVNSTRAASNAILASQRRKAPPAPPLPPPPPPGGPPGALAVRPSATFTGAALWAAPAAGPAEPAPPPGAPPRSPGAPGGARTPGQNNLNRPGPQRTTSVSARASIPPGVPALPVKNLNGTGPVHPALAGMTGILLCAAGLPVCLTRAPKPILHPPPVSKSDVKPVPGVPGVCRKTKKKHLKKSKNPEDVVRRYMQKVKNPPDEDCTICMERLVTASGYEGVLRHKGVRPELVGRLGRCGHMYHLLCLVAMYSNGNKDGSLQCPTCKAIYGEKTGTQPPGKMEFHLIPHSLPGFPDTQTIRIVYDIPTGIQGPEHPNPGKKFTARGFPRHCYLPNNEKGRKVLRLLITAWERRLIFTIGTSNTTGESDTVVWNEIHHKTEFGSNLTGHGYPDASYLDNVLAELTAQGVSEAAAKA
UniProt Q8IUH5: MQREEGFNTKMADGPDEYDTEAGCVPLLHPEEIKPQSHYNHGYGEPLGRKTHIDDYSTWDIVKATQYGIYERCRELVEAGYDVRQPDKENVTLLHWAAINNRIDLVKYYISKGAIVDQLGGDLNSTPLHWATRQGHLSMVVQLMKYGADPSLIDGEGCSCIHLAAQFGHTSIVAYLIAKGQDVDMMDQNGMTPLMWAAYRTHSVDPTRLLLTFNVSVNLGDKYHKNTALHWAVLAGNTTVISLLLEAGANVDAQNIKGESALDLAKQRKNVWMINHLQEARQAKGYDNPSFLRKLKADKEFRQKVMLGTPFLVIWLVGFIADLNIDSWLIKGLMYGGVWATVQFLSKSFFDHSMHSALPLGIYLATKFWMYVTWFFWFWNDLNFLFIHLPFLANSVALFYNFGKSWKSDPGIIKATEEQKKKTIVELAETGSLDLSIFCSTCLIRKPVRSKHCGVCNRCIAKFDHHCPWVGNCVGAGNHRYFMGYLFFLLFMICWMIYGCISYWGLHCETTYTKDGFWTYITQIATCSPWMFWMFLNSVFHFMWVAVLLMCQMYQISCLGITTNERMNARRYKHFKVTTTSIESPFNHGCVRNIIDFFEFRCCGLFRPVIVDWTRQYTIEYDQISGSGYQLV
UniProt Q7LBR1: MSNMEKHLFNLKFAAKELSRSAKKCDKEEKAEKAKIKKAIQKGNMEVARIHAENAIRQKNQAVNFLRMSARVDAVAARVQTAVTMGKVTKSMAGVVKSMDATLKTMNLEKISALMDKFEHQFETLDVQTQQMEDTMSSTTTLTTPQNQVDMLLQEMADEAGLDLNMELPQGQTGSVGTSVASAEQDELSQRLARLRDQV
UniProt Q86TI2: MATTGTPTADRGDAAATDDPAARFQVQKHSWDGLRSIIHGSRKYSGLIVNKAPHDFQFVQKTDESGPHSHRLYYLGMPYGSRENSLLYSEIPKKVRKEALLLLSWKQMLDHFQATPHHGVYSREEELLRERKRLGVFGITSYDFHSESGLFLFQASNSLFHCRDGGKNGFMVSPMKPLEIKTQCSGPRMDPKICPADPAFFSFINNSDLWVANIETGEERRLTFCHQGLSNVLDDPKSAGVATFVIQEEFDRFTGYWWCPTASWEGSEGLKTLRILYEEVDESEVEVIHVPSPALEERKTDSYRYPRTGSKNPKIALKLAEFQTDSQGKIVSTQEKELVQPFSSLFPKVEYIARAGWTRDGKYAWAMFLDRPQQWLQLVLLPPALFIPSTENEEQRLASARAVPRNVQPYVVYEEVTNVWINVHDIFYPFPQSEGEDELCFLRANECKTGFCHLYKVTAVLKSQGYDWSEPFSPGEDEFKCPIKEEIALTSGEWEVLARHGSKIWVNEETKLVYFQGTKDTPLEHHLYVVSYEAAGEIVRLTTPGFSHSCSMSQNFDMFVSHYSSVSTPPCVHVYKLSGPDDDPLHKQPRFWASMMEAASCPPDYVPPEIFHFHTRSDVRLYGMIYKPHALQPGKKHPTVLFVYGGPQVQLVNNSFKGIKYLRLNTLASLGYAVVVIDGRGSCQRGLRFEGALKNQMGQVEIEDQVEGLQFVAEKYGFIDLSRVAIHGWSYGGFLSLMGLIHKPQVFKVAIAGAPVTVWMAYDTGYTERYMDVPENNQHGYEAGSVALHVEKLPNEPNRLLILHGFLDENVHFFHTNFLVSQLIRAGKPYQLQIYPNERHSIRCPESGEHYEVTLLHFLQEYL
UniProt Q86VR2, whole entry: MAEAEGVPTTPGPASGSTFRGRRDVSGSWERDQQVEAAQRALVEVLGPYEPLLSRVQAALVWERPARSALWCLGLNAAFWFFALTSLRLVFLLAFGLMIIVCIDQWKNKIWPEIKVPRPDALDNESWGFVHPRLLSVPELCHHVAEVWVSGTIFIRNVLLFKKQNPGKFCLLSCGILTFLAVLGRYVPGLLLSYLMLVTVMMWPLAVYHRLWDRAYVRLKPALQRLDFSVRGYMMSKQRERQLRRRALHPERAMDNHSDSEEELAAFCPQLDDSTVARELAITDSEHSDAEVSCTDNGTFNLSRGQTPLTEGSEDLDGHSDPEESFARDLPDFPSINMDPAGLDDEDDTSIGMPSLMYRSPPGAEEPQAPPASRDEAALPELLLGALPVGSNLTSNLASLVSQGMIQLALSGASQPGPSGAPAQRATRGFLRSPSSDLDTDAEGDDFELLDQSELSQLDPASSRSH
UniProt Q8IUC6, whole entry: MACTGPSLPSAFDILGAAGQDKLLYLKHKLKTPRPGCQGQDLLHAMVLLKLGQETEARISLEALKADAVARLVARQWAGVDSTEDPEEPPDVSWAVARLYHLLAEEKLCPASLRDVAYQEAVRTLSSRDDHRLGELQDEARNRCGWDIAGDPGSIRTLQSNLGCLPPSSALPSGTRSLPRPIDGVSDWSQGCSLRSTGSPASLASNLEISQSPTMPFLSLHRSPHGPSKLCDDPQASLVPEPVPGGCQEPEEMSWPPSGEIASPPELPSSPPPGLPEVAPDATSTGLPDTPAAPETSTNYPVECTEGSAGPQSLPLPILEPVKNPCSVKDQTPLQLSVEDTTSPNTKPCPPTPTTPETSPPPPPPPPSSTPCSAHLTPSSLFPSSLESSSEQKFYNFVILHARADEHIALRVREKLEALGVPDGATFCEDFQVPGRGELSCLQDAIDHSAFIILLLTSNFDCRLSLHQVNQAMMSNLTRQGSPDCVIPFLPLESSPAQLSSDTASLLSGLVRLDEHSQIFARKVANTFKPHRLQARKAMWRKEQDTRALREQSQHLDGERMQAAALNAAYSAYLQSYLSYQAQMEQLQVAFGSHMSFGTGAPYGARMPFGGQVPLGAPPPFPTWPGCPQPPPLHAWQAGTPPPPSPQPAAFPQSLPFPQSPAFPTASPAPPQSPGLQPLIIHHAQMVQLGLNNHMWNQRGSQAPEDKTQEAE
UniProt Q86X95: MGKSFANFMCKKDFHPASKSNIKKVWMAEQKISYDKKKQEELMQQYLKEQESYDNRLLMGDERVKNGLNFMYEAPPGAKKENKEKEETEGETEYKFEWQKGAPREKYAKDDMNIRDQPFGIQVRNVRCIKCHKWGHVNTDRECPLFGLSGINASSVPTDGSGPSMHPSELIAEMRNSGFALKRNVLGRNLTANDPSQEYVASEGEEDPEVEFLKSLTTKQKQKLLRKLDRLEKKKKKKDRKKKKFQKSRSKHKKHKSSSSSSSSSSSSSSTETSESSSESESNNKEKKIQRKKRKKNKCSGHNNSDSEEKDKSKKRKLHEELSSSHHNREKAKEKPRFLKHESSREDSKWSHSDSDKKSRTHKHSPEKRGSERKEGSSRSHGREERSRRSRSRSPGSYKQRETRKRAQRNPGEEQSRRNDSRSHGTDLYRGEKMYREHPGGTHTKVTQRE
UniProt Q6QNY0: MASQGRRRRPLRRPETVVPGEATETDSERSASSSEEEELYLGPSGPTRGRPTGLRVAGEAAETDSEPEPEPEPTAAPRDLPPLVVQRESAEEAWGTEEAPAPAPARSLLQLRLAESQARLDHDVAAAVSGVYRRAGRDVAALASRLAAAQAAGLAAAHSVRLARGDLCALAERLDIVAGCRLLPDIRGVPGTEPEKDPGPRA
UniProt Q7Z5G4, whole entry: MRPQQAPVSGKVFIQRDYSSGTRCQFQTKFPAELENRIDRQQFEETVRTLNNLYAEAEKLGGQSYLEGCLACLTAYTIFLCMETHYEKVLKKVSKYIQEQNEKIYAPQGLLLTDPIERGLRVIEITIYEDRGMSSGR

Compound: Nc1ncnc2c1ncn2[C@@H]1O[C@H](COP(=O)(O)OP(=O)(O)OP(=O)(O)O)[C@@H](O)[C@H]1O [adenosine triphosphate]
Assay: NP40-soluble protein abundance relative to vehicle (solubility fold change) (ratio); higher = more soluble protein in presence of ATP
Outline: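 Data come from three independent experiments in which Dounce-homogenised Jurkat crude lysate was treated at eight concentrations from 0.1 to 10 mM. Treatment ran 10 min at room temperature and then 3 min at 37 °C, after which 0.8% NP40 and benzonase were added for 60 min at 4 °C before ultracentrifugation. The supernatant underwent TMT labelling and LC-MS/MS, and vsn-normalised intensities were expressed as fold change against the detergent-processed vehicle in each replicate.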

In the case of UniProt Q86UY6, the NP40-soluble protein abundance (concentration: 0.1mM) is reported as 1.09 ± 0.042, the NP40-soluble protein abundance (concentration: 0.5mM) is reported as 1.36 ± 0.035 and the NP40-soluble protein abundance (concentration: 1mM) is reported as 1.39 ± 0.18. It also gave an NP40-soluble protein abundance (concentration: 2mM) of 1.46 ± 0.14, an NP40-soluble protein abundance (concentration: 4mM) of 1.56 ± 0.21 and an NP40-soluble protein abundance (concentration: 6mM) of 1.66 ± 0.26. For the same target, the NP40-soluble protein abundance (concentration: 8mM) was 1.69 ± 0.21 and the NP40-soluble protein abundance (concentration: 10mM) was 1.69 ± 0.15.
UniProt Q7L4P6 and related entries showed an NP40-soluble protein abundance (concentration: 0.1mM) of 1.1 ± 0.036, an NP40-soluble protein abundance (concentration: 0.5mM) of 1.03 ± 0.075 and an NP40-soluble protein abundance (concentration: 1mM) of 0.995 ± 0.085. For the same target, the NP40-soluble protein abundance (concentration: 2mM) was 1.12 ± 0.2, the NP40-soluble protein abundance (concentration: 4mM) was 1.23 ± 0.3 and the NP40-soluble protein abundance (concentration: 6mM) was 1.2 ± 0.21. For the same target, the NP40-soluble protein abundance (concentration: 8mM) was 1.02 ± 0.096 and the NP40-soluble protein abundance (concentration: 10mM) was 1.12 ± 0.14.
In the case of UniProt Q86W42 and related entries, the NP40-soluble protein abundance (concentration: 0.1mM) is reported as 1.11 ± 0.033, the NP40-soluble protein abundance (concentration: 0.5mM) is reported as 1.41 ± 0.062 and the NP40-soluble protein abundance (concentration: 1mM) is reported as 1.59 ± 0.18. For the same target, the NP40-soluble protein abundance (concentration: 2mM) was 1.69 ± 0.05, the NP40-soluble protein abundance (concentration: 4mM) was 2 ± 0.087 and the NP40-soluble protein abundance (concentration: 6mM) was 2.16 ± 0.071. It also gave an NP40-soluble protein abundance (concentration: 8mM) of 2.47 ± 0.094 and an NP40-soluble protein abundance (concentration: 10mM) of 2.55 ± 0.19.
With UniProt Q6ZNE5 and related entries the NP40-soluble protein abundance (concentration: 0.1mM) was 0.93 ± 0.12 and the NP40-soluble protein abundance (concentration: 0.5mM) was 0.962 ± 0.02.
With UniProt Q7Z5K2 and related entries the NP40-soluble protein abundance (concentration: 0.1mM) was 1.03 ± 0.051, the NP40-soluble protein abundance (concentration: 0.5mM) was 1.04 ± 0.064 and the NP40-soluble protein abundance (concentration: 1mM) was 1.02 ± 0.011. The NP40-soluble protein abundance (concentration: 2mM) was 0.995 ± 0.018, the NP40-soluble protein abundance (concentration: 4mM) was 0.993 ± 0.011 and the NP40-soluble protein abundance (concentration: 6mM) was 1.01 ± 0.026. For the same target, the NP40-soluble protein abundance (concentration: 8mM) was 1.014 ± 0.0065 and the NP40-soluble protein abundance (concentration: 10mM) was 0.987 ± 0.029.
In the case of UniProt Q86Y01, the NP40-soluble protein abundance (concentration: 0.1mM) is reported as 0.891 ± 0.057, the NP40-soluble protein abundance (concentration: 0.5mM) is reported as 0.9203 ± 0.0011 and the NP40-soluble protein abundance (concentration: 1mM) is reported as 0.964 ± 0.033. For the same target, the NP40-soluble protein abundance (concentration: 2mM) was 1.05 ± 0.022, the NP40-soluble protein abundance (concentration: 4mM) was 1.12 ± 0.065 and the NP40-soluble protein abundance (concentration: 6mM) was 1.05 ± 0.088. For the same target, the NP40-soluble protein abundance (concentration: 8mM) was 1.09 ± 0.012 and the NP40-soluble protein abundance (concentration: 10mM) was 1.15 ± 0.1.
Target DYM (UniProt Q7RTS9) has an NP40-soluble protein abundance (concentration: 0.1mM) of 0.988 ± 0.037 and an NP40-soluble protein abundance (concentration: 0.5mM) of 0.983 ± 0.021.
Work on ZDHHC17 (UniProt Q8IUH5) yielded an NP40-soluble protein abundance (concentration: 0.1mM) of 1.1 ± 0.041, an NP40-soluble protein abundance (concentration: 0.5mM) of 1.08 ± 0.073 and an NP40-soluble protein abundance (concentration: 1mM) of 1.08 ± 0.056. It also gave an NP40-soluble protein abundance (concentration: 2mM) of 0.997 ± 0.021, an NP40-soluble protein abundance (concentration: 4mM) of 1.11 ± 0.082 and an NP40-soluble protein abundance (concentration: 6mM) of 1.02 ± 0.058. For the same target, the NP40-soluble protein abundance (concentration: 8mM) was 1.09 ± 0.063 and the NP40-soluble protein abundance (concentration: 10mM) was 1.08 ± 0.033.
With UniProt Q6Y7W6 and related entries the NP40-soluble protein abundance (concentration: 0.1mM) was 0.994 ± 0.023, the NP40-soluble protein abundance (concentration: 0.5mM) was 1.05 ± 0.051 and the NP40-soluble protein abundance (concentration: 1mM) was 1.05 ± 0.076. It also gave an NP40-soluble protein abundance (concentration: 2mM) of 1.08 ± 0.05, an NP40-soluble protein abundance (concentration: 4mM) of 1.1 ± 0.051 and an NP40-soluble protein abundance (concentration: 6mM) of 1.18 ± 0.068. The NP40-soluble protein abundance (concentration: 8mM) was 1.12 ± 0.029 and the NP40-soluble protein abundance (concentration: 10mM) was 1.16 ± 0.045.
CHMP1B (UniProt Q7LBR1) gave an NP40-soluble protein abundance (concentration: 0.1mM) of 0.963 ± 0.062 and an NP40-soluble protein abundance (concentration: 0.5mM) of 0.936 ± 0.043.
With DPP9 (UniProt Q86TI2) the NP40-soluble protein abundance (concentration: 0.1mM) was 1.07 ± 0.086 and the NP40-soluble protein abundance (concentration: 0.5mM) was 1.05 ± 0.087.
LARP1 (UniProt Q6PKG0) showed an NP40-soluble protein abundance (concentration: 0.1mM) of 0.93 ± 0.054, an NP40-soluble protein abundance (concentration: 0.5mM) of 0.898 ± 0.038 and an NP40-soluble protein abundance (concentration: 1mM) of 0.939 ± 0.062. The NP40-soluble protein abundance (concentration: 2mM) was 0.988 ± 0.065, the NP40-soluble protein abundance (concentration: 4mM) was 1.06 ± 0.059 and the NP40-soluble protein abundance (concentration: 6mM) was 1.2 ± 0.069. For the same target, the NP40-soluble protein abundance (concentration: 8mM) was 1.22 ± 0.043 and the NP40-soluble protein abundance (concentration: 10mM) was 1.33 ± 0.065.
UniProt Q7L590 and related entries was tested, and the NP40-soluble protein abundance (concentration: 0.1mM) was 0.974 ± 0.031, the NP40-soluble protein abundance (concentration: 0.5mM) was 1.01 ± 0.063 and the NP40-soluble protein abundance (concentration: 1mM) was 1.01 ± 0.11. For the same target, the NP40-soluble protein abundance (concentration: 2mM) was 1.07 ± 0.059, the NP40-soluble protein abundance (concentration: 4mM) was 1.13 ± 0.044 and the NP40-soluble protein abundance (concentration: 6mM) was 1.01 ± 0.057. For the same target, the NP40-soluble protein abundance (concentration: 8mM) was 1.11 ± 0.12 and the NP40-soluble protein abundance (concentration: 10mM) was 1.14 ± 0.12.
Target UniProt Q86VR2 has an NP40-soluble protein abundance (concentration: 0.1mM) of 0.95 ± 0.05, an NP40-soluble protein abundance (concentration: 0.5mM) of 0.95 ± 0.071 and an NP40-soluble protein abundance (concentration: 1mM) of 0.91 ± 0.084. For the same target, the NP40-soluble protein abundance (concentration: 2mM) was 0.941 ± 0.088, the NP40-soluble protein abundance (concentration: 4mM) was 0.925 ± 0.11 and the NP40-soluble protein abundance (concentration: 6mM) was 0.869 ± 0.037. For the same target, the NP40-soluble protein abundance (concentration: 8mM) was 0.906 ± 0.064 and the NP40-soluble protein abundance (concentration: 10mM) was 0.943 ± 0.052.
Work on PCGF5 (UniProt Q86SE9) yielded an NP40-soluble protein abundance (concentration: 0.1mM) of 0.927 ± 0.046, an NP40-soluble protein abundance (concentration: 0.5mM) of 1 ± 0.057 and an NP40-soluble protein abundance (concentration: 1mM) of 0.922 ± 0.16. For the same target, the NP40-soluble protein abundance (concentration: 2mM) was 1.01 ± 0.056, the NP40-soluble protein abundance (concentration: 4mM) was 0.981 ± 0.15 and the NP40-soluble protein abundance (concentration: 6mM) was 0.987 ± 0.087. The NP40-soluble protein abundance (concentration: 8mM) was 0.954 ± 0.11 and the NP40-soluble protein abundance (concentration: 10mM) was 1.07 ± 0.037.
With UniProt Q86U06 and related entries the NP40-soluble protein abundance (concentration: 0.1mM) was 1.2 ± 0.17, the NP40-soluble protein abundance (concentration: 0.5mM) was 1.29 ± 0.47 and the NP40-soluble protein abundance (concentration: 1mM) was 1.5 ± 0.41. The NP40-soluble protein abundance (concentration: 2mM) was 1.53 ± 0.31, the NP40-soluble protein abundance (concentration: 4mM) was 1.48 ± 0.33 and the NP40-soluble protein abundance (concentration: 6mM) was 1.76 ± 0.46. For the same target, the NP40-soluble protein abundance (concentration: 8mM) was 1.56 ± 0.41 and the NP40-soluble protein abundance (concentration: 10mM) was 1.46 ± 0.49.
Target SETD3 (UniProt Q86TU7) has an NP40-soluble protein abundance (concentration: 0.1mM) of 1.03 ± 0.047 and an NP40-soluble protein abundance (concentration: 0.5mM) of 1.05 ± 0.045.
With TICAM1 (UniProt Q8IUC6) the NP40-soluble protein abundance (concentration: 0.1mM) was 0.874 ± 0.02 and the NP40-soluble protein abundance (concentration: 0.5mM) was 0.953 ± 0.084.
UniProt Q7Z2T5 gave an NP40-soluble protein abundance (concentration: 0.1mM) of 1.02 ± 0.046, an NP40-soluble protein abundance (concentration: 0.5mM) of 1.06 ± 0.037 and an NP40-soluble protein abundance (concentration: 1mM) of 1.09 ± 0.05. The NP40-soluble protein abundance (concentration: 2mM) was 1.16 ± 0.051, the NP40-soluble protein abundance (concentration: 4mM) was 1.27 ± 0.013 and the NP40-soluble protein abundance (concentration: 6mM) was 1.39 ± 0.023. The NP40-soluble protein abundance (concentration: 8mM) was 1.55 ± 0.018 and the NP40-soluble protein abundance (concentration: 10mM) was 1.69 ± 0.051.
For UniProt Q86X95, the NP40-soluble protein abundance (concentration: 0.1mM) was 1.02 ± 0.016, the NP40-soluble protein abundance (concentration: 0.5mM) was 1 ± 0.045 and the NP40-soluble protein abundance (concentration: 1mM) was 0.964 ± 0.013. It also gave an NP40-soluble protein abundance (concentration: 2mM) of 0.935 ± 0.061, an NP40-soluble protein abundance (concentration: 4mM) of 0.9643 ± 0.008 and an NP40-soluble protein abundance (concentration: 6mM) of 0.949 ± 0.026. The NP40-soluble protein abundance (concentration: 8mM) was 0.935 ± 0.0096 and the NP40-soluble protein abundance (concentration: 10mM) was 0.913 ± 0.02.
BLOC1S3 (UniProt Q6QNY0) showed an NP40-soluble protein abundance (concentration: 0.1mM) of 0.95 ± 0.055 and an NP40-soluble protein abundance (concentration: 0.5mM) of 0.918 ± 0.025.
USP34 (UniProt Q70CQ2) was tested, and the NP40-soluble protein abundance (concentration: 0.1mM) was 1.05 ± 0.033 and the NP40-soluble protein abundance (concentration: 0.5mM) was 1.03 ± 0.058.
In the case of UniProt Q7Z5G4 and related entries, the NP40-soluble protein abundance (concentration: 0.1mM) is reported as 0.965 ± 0.035, the NP40-soluble protein abundance (concentration: 0.5mM) is reported as 0.939 ± 0.052 and the NP40-soluble protein abundance (concentration: 1mM) is reported as 0.928 ± 0.02. For the same target, the NP40-soluble protein abundance (concentration: 2mM) was 0.914 ± 0.015, the NP40-soluble protein abundance (concentration: 4mM) was 0.902 ± 0.019 and the NP40-soluble protein abundance (concentration: 6mM) was 0.885 ± 0.046. It also gave an NP40-soluble protein abundance (concentration: 8mM) of 0.878 ± 0.014 and an NP40-soluble protein abundance (concentration: 10mM) of 0.897 ± 0.032.
